PubChem BioAssay AID504786 – Drosophila RNAi Screening Center, 2011
Purpose: 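Fly genes required for HIF-dependent transcription when hypoxia is mimicked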 (primary screen). Cell system: Drosophila S2 cells with a stable HIF luciferase reporter. Knock-down reagent: long dsRNA against Drosophila genes, about 0.2 µg dsRNA per well of a 384-well plate. Timing: three days of knock-down, then 20 h of DFO before reading. Challenge: desferrioxamine (DFO) at 100 µM, an iron chelator that mimics hypoxia, for 20 h. Measured: 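Firefly luciferase driven by the mouse ldh-a hypoxia-response element, measured after 20 h of 100 µM DFO; z-scores per plate, higher means more signal lost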. Reading the numbers: z-score: higher = stronger loss of HIF reporter signal.
The deposit covers about 21,000 reagents; shown is a random part of those that have a named target and a result. 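Primary screen; positive scores mean lost reporter signal, so the sign may be inverted from the usual convention.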 Names joined by + are all predicted targets of the reagent.

| Gene | amplicon | z-score, replicate 1 | z-score, replicate 2 | z-score, replicate 3 | z-score, replicate 4 |
| --- | --- | --- | --- | --- | --- |
| CG13982 | DRSC02314 | -0.4 | -0.2 | – | – |
| wupA | DRSC20385 | -0.2 | -0.4 | -0.7 | -0.4 |
| sing | DRSC19530 | -0.4 | -0.6 | – | – |
| CG4194 | DRSC18520 | -0.2 | 0.1 | – | – |
| Cyt-b5 | DRSC07392 | -0.3 | 0.1 | – | – |
| eIF3h | DRSC01995 | 0.7 | 0.1 | – | – |
| CG34296 | DRSC13961 | 0 | -0.2 | – | – |
| CG14339 | DRSC00369 | -0.2 | -0.1 | – | – |
| mgr | DRSC16099 | -0.3 | -0.4 | – | – |
| CG12362 | DRSC09884 | -0.3 | 0 | – | – |
| Odc1 | DRSC07482 | -0.4 | -0.3 | – | – |
| ATPsynbetaL | DRSC10503 | -0.1 | 0.1 | – | – |
| CG10051 | DRSC05959 | -0.4 | -0.2 | – | – |
| CG7653 | DRSC01886 | -0.2 | -0.1 | – | – |
| CG6295 | DRSC16012 | 0 | -0.2 | – | – |
| Coq5 | DRSC19849 | -0.2 | -0.5 | -0.1 | 0 |
| Ser7 | DRSC18201 | -0.3 | -0.1 | – | – |
| CG11811 | DRSC09862 | -0.4 | -0.4 | – | – |
| CG34304 (retired record) | DRSC12810 | -0.4 | -0.5 | – | – |
| CG3500 | DRSC04379 | -0.3 | -0.4 | – | – |
| Cpr65Aw | DRSC08794 | 0.5 | -0.3 | – | – |
| retm | DRSC03252 | -0.3 | -0.5 | – | – |
| CG31219 | DRSC15140 | -0.5 | -0.1 | – | – |
| CG11149 | DRSC02130 | 0 | -0.1 | – | – |
| ave | DRSC05502 | 0.3 | 0.1 | – | – |
| Btk | DRSC02008 | -0.4 | -0.9 | – | – |
| Btk | DRSC02666 | -0.3 | -0.8 | – | – |
| feo | DRSC19398 | -0.7 | -0.4 | – | – |
| CG34334 | DRSC20643 | 0.5 | 0.1 | – | – |
| MAGE | DRSC12504 | 0 | -0.3 | – | – |
| Zasp67 | DRSC10169 | 0 | 0.1 | – | – |
| CG15905 | DRSC06591 | -0.3 | -0.4 | – | – |
| CG6163 | DRSC10595 | -0.3 | -0.3 | – | – |
| CG7627 | DRSC03065 | -0.3 | -0.3 | – | – |
| Rab9Db + Rab9D + Rab9E | DRSC17656 | -0.2 | -0.3 | – | – |
| boca | DRSC06408 | -0.4 | -0.9 | – | – |
| CG30192 | DRSC03977 | -0.6 | 0.3 | – | – |
| CG12883 | DRSC14570 | -0.5 | -0.5 | – | – |
| Vm26Aa | DRSC03472 | -0.2 | -0.4 | – | – |
| Prosbeta4R1 | DRSC00502 | -0.2 | 0 | – | – |
| GABPI | DRSC00494 | -0.2 | -0.3 | – | – |
| CG14864 | DRSC14987 | -0.3 | -0.1 | – | – |
| CG12231 | DRSC19445 | -0.5 | -0.4 | – | – |
| dpr1 | DRSC05906 | 0.3 | -0.3 | – | – |
| dpr1 | DRSC06399 | -0.4 | -0.1 | – | – |
| Pex1 | DRSC11358 | -0.3 | -0.2 | – | – |
| CG32945 | DRSC12014 | -0.1 | 0 | – | – |
| Theg | DRSC16023 | -0.2 | -0.4 | – | – |
| px | DRSC04708 | -0.2 | -1 | – | – |
| CG14450 | DRSC11707 | 0.2 | 0.7 | – | – |
| Cpr47Ec | DRSC07332 | -0.2 | -0.2 | – | – |
| Naa30A | DRSC18583 | 1.1 | 2 | – | – |
| maf-S | DRSC07348 | -0.2 | 0 | – | – |
| CG9426 | DRSC03219 | -0.3 | 3.6 | – | – |
| mge | DRSC08721 | 0.5 | 0.5 | – | – |
| CCHa2 | DRSC14835 | -0.4 | 1 | -0.4 | -0.4 |
| CG5783 | DRSC02894 | -0.3 | 0 | – | – |
| AlaRS | DRSC01851 | -0.1 | -0.3 | – | – |
| pths | DRSC03171 | 2.5 | 4.2 | – | – |
| GILT2 | DRSC14196 | -0.3 | -0.3 | – | – |
| CG13060 | DRSC09943 | -0.1 | -0.4 | – | – |
| CG7582 | DRSC16261 | -0.2 | -0.2 | – | – |
| dia | DRSC03519 | -0.4 | -0.5 | – | – |
| Etl1 | DRSC02911 | -0.2 | -0.3 | – | – |
| Nadsyn | DRSC20222 | -0.2 | -0.3 | – | – |
| CG10171 | DRSC09711 | -0.3 | 0 | – | – |
| Tre1 | DRSC18726 | -0.3 | 0.5 | – | – |
| CG13962 | DRSC02304 | -0.3 | -0.2 | – | – |
| CG6421 | DRSC07420 | -0.3 | 0.1 | – | – |
| Ptp61F | DRSC08683 | -0.5 | -0.5 | – | – |
| Hmx | DRSC15884 | -0.3 | -0.5 | – | – |
| Hmx | DRSC16706 | -0.4 | 0.2 | – | – |
| CG6026 | DRSC15950 | 1.2 | 0 | – | – |
| CG12746 | DRSC12218 | -0.4 | -0.7 | – | – |
| CG6726 | DRSC16101 | -0.3 | -0.3 | – | – |
| sqd | DRSC15160 | 0.7 | 0.2 | – | – |
| sqd | DRSC17066 | -0.2 | 4.8 | – | – |
| NijB | DRSC09850 | -0.9 | -0.3 | – | – |
| CG33013 (retired record) | DRSC06286 | -0.2 | -0.2 | – | – |
| TwdlN | DRSC15813 | 0.5 | 2.9 | – | – |
| CycJ | DRSC08653 | -0.3 | -0.6 | – | – |
| SPE | DRSC15135 | -0.2 | -0.7 | – | – |
| Xbp1 | DRSC04553 | -0.8 | -0.4 | – | – |

Limited to “z-score, replicate 1”, for 9 of the entries above:
Cyt-b5 [DRSC07392]	-0.3
eIF3h [DRSC01995]	0.7
CG34296 [DRSC13961]	0
CG14339 [DRSC00369]	-0.2
mgr [DRSC16099]	-0.3
CG12362 [DRSC09884]	-0.3
Odc1 [DRSC07482]	-0.4
ATPsynbetaL [DRSC10503]	-0.1
CG10051 [DRSC05959]	-0.4
